# Reference: PubChem BioAssay AID504834 (National Center for Advancing Translational Sciences (NCATS), 2011)
# Hit rate of the full screen: of about 320,000 compounds, about 22,000 (6.9%) were called active. Inconclusive means that the source gave no clear call. Such entries were picked first, then a sample of the others. Calls come from the whole dose curve; as a rule, active = well fitted inhibition curve with a large enough effect; inconclusive = small, poorly fitted or top-dose-only effect, or another doubt; inactive = no such curve, though single readings can be large or run the other way. Potencies beside an inconclusive call are fits to weak or partial responses and may not hold up.
# Experiment: Primary qHTS for delayed death inhibitors of the malarial parasite plastid, 96 hour incubation
# Details: P. falciparum luciferase reporter growth; series mostly up to 28.7 µM
# Summary of the method: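 Two-generation exposure (96 h) targets delayed-death phenotype. Reporter parasites carrying integrated firefly luciferase, in red cells at 2% hematocrit and 0.05% parasitemia final, kept at 37 C, 5% CO2; luminescence loss indicates inhibition.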
# Potency is the fitted concentration of half-maximal effect.
row,Structure (SMILES),Potency
1,CC(OC(=O)c1ccc(Cl)c(S(=O)(=O)N2CCOCC2)c1)C(=O)NC1CCCCC1C (stereo not given),"inconclusive: 13.1 µM [inhibitor, single point]"
2,COc1ccccc1CNC(=O)c1c(O)c2cc(OC)c(OC)cc2[nH]c1=O,"inconclusive: 14.7 µM [inhibitor, partial curve, poor fit]"
3,O=C(CN1CCN(S(=O)(=O)c2ccc(Br)cc2)CC1)N/N=C/c1ccncc1,"inconclusive: 0.233 µM [inhibitor, partial curve, poor fit]"
4,CC(C)n1cc(C(=O)NC2CC(C)(C)Cc3c2cnn3-c2ccccc2)cn1 (stereo not given),"inconclusive: 18.5 µM [inhibitor, single point]"
5,CCCCOC(=O)c1cccnc1,"inconclusive: 0.0657 µM [inhibitor, full curve, poor fit]"
6,O=C(CSc1nccn1-c1ccc(Cl)cc1)NCc1ccc2c(c1)OCO2,"inconclusive: 1.65 µM [inhibitor, single point]"
7,O=C(/C=C/c1ccc(Cl)cc1Cl)n1cccn1,"inconclusive: 0.0026 µM [inhibitor, full curve, poor fit]"
8,Cc1ccc(N2CC(C(=O)Nc3ccc4c(c3)OCO4)CC2=O)cc1C (stereo not given),inactive
9,Cc1ccc(OCCNC(=O)c2ccc(C)o2)cc1,"inconclusive: 10.4 µM [inhibitor, single point]"
10,O=S(=O)(NC1CCCC1)c1ccc(S(=O)(=O)N(Cc2cccs2)CC2CCCO2)cc1 (stereo not given),"inconclusive: 0.037 µM [inhibitor, full curve, poor fit]"
11,COc1ccc(N(C(=O)c2ccco2)S(=O)(=O)c2cccs2)cc1,"inconclusive: 14.7 µM [inhibitor, partial curve, poor fit]"
12,CC(C)Oc1ccc(CCNC(=O)C2CCC(=O)N(C3CCCCCC3)C2)cc1 (stereo not given),"inconclusive: 13.1 µM [inhibitor, single point]"
13,Cc1cc(C)nc(N2CCN(C(=O)CCC(=O)Nc3nnc(C(C)C)s3)CC2)n1,inactive
14,COc1ccc(S(=O)(=O)NC2CC(C)(C)NC(C)(C)C2)cc1C(C)C,"inconclusive: 18.5 µM [inhibitor, single point]"
15,CCn1c2ccccc2c2cc(NC(=O)C(=O)N3CCOCC3)ccc21,"inconclusive: 13.1 µM [inhibitor, single point]"
16,CCOc1ccc2[nH]c3c(NCCC(C)C)ncnc3c2c1,"inconclusive: 0.208 µM [inhibitor, full curve, poor fit]"
17,O=C(NC(=S)NCCN1CCOCC1)c1ccc(Cl)cc1,inactive
18,C=CCn1c(-c2ccncc2)n[nH]c1=S,"inconclusive: 13.1 µM [inhibitor, single point]"
19,CCN(CC)S(=O)(=O)c1ccc(Cl)c(NC(=O)COc2ccc3c(C)cc(=O)oc3c2)c1,inactive
20,CCOC(=O)N1CCN(S(=O)(=O)c2cc(Br)cnc2N)CC1,"inconclusive: 16.5 µM [inhibitor, single point]"
21,CCCCc1c(O)c2ccccc2n(CCCC)c1=O,inactive
22,CC/C(=N/N=C(\CC)c1ccccc1)c1ccccc1,"inconclusive: 18.5 µM [inhibitor, single point]"
23,CCOc1ccc(N(CC(=O)NCc2ccccc2)C(=O)Cn2nnc(-c3ccc(C)o3)n2)cc1,inactive

# Given tab-delimited: part of the list above.
row	Structure (SMILES)	Potency
20	CCOC(=O)N1CCN(S(=O)(=O)c2cc(Br)cnc2N)CC1	inconclusive: 16.5 µM [inhibitor, single point]
21	CCCCc1c(O)c2ccccc2n(CCCC)c1=O	inactive

# Going on with the list.

row,Structure (SMILES),Potency
1,CS(=O)(=O)N(CC(=O)N1CCCC1)c1cccc(F)c1,inactive
2,Cc1ccc(NC(=O)OC(C)CNC(=O)Oc2cccc(C)c2)cc1 (stereo not given),"inconclusive: 18.5 µM [inhibitor, single point]"
3,COc1ccc(-c2ccnc(SCC(=O)Nc3ccccn3)n2)cc1,"inconclusive: 18.5 µM [inhibitor, single point]"
4,CCOC(=O)c1c(C)n(C)c2cc(-c3ccc(C)cc3)c(O)cc12,"inconclusive: 16.5 µM [inhibitor, single point]"
5,CCOc1ccc(C(CC(=O)O)NC(=O)Cc2ccc(Cl)cc2)cc1 (stereo not given),active: 3.29 µM
6,COC(=O)C1=C(O)/C(=C\c2cc(C)n(-c3ccccc3C)c2C)N=C1C,"inconclusive: 0.329 µM [inhibitor, full curve, poor fit]"
7,Cn1c(=O)[nH]c(=O)c2c1nc(N1CCOCC1)n2CCCSc1ncccn1,inactive
8,CSc1ncc2c(=O)[nH]c(-c3ccccc3)nc2n1,"inconclusive: 8.28 µM [inhibitor, partial curve, poor fit]"
9,COc1ccc(OC)c(NC(=O)CC2Oc3ccccc3NC2=O)c1 (stereo not given),inactive
10,CC(=O)N1CCc2cc(C(=O)CN3CCCN(Cc4ccc(F)cc4)C3)ccc21,"inconclusive: 18.5 µM [inhibitor, single point]"
11,S=C(NCc1ccccn1)Nc1ccc(Cl)c(Cl)c1,"inconclusive: 13.1 µM [inhibitor, partial curve, poor fit]"
12,Cc1ccc(OCCSc2cc(C)nc(N)n2)cc1,inactive
13,CCCCNC(=S)Nc1ccc2nc(N3CCN(CC)CC3)cc(C)c2c1,"inconclusive: 4.65 µM [inhibitor, partial curve]"
14,CCOCCCNC(=O)CCCOc1ccccc1,active: 4.65 µM
15,COCCNC(=S)Nc1ccc2nsnc2c1,inactive
16,Cc1[nH]c2ccc(F)cc2c1CCN(Cc1cccnc1)C(=S)Nc1ccc(F)cc1,active: 7.38 µM
17,N#CC1(NC(=O)CSc2nnc(-c3ccccc3F)o2)CCCCC1,inactive
18,CC(C)C[C@H](NC(=O)N1CC(=O)Nc2ccccc21)C(=O)N[C@H](Cc1ccccc1)C(=O)O,"inconclusive: 10.4 µM [inhibitor, single point]"
19,Cc1cc(C(=O)N/N=C/c2ccc(N(C)C)cc2)c2ccccc2n1,inactive
20,CCN(CC)S(=O)(=O)c1ccc(N2CCOCC2)c(NS(=O)(=O)c2cc(C(C)(C)C)ccc2C)c1,"inconclusive: 0.0415 µM [inhibitor, full curve, poor fit]"
21,CC(NCCC(Cc1ccccc1)c1ccco1)c1ccccc1 (stereo not given),"inconclusive: 18.5 µM [inhibitor, single point]"
22,Cc1ccc(SCC2=NNC(=O)C2)cc1,"inconclusive: 0.0033 µM [inhibitor, full curve, poor fit]"
